# Results taken from PubChem BioAssay AID504467 (National Center for Advancing Translational Sciences (NCATS), 2011).
# Hit rate of the full screen: of about 330,000 compounds, about 7,700 (2.3%) were called active. The inconclusive results got no clear call from the source; some entries with a clear call stand among them for comparison. Calls follow the shape of the dose curve; as a rule, active = well fitted inhibition curve with a large enough effect; inconclusive = small, poorly fitted or top-dose-only effect, or effect the other way; inactive = flat fitted curve, though single readings scatter. Potencies beside an inconclusive call are fits to weak or partial responses and may not hold up.
# Experiment: qHTS screen for small molecules that inhibit ELG1-dependent DNA repair in human embryonic kidney (HEK293T) cells expressing luciferase-tagged ELG1; also: nearly all actives have a fitted effect of over 55% in size
# Details: HEK293T ELG1-luciferase reporter, luminescence, 16 h, DNA damage induced by 5-fluorouridine; series mostly up to 46.1 µM
# Summary of the method: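 Step one: seed 2,000 cells per well. Step two: pin-transfer compound or DMSO alongside 5-fluorouridine. Step three: incubate 16 hr, 37 °C, 5% CO2. Step four: add ONE-Glo, wait 30 min, read luminescence.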
# Potency is read from the fitted curve at half-maximal effect.
row,SMILES,Potency
1,CC1(C(=O)NNC(=O)c2ccc([N+](=O)[O-])cc2)CC1(Br)Br (stereo not drawn),inactive
2,OC1(c2cccs2)CN(c2ccc(Cl)cc2)C2=[N+]1CCCS2 (stereo not drawn),"inconclusive: 32.6 µM [inhibitor, single point]"
3,COC(=O)c1ccccc1NC(=O)CN1CCN(C23CC4CC(CC(C4)C2)C3)CC1,"inconclusive: 23.1 µM [inhibitor, partial curve, poor fit]"
4,CCC(C)NCCOCCOc1cc(C)c(Cl)c(C)c1 (stereo not drawn),inactive
5,C[C@H](CO)N1C[C@H](C)[C@@H](CN(C)S(=O)(=O)c2ccc(F)cc2)Oc2ccc(NC(=O)NC3CCCCC3)cc2C1=O,"inconclusive: 29.1 µM [inhibitor, single point]"
6,CCOc1ccc(Nc2nc(N)nc(CSC(=S)N3CCN(c4ccccc4)CC3)n2)cc1,active: 10.3 µM
7,COc1ccccc1CNC(=O)CSc1nn2c(=O)c(C(C)(C)C)nnc2s1,inactive
8,O=C(O)CC1(CC(=O)Nc2cc3ccccc3cn2)CCCCC1,inactive
9,O=C(Oc1c(CN2CCOCC2)cc(Cl)c2cccnc12)c1ccc(F)cc1,"inconclusive: 4.61 µM [inhibitor, single point]"
10,Cc1cc(-c2nnc(SCC(=O)Nc3ccc(S(N)(=O)=O)cc3)n2N)n[nH]1,"inconclusive: 18.3 µM [activator, single point]"
11,Cc1ccc(CN2C(=O)CCC2C(=O)NCc2ccccc2Cl)cc1 (stereo not drawn),inactive
12,CCS(=O)(=O)C1=NSC2=NC(=O)/C(=C\c3ccc(OC(=O)c4ccco4)cc3)C(=N)N21,inactive
13,COCc1nc2ccccc2n1Cc1ccccc1C,inactive
14,Cc1cccc(NC(=O)CSc2nc3ccccc3nc2N2CCCCC2)c1,"inconclusive: 7.3 µM [activator, partial curve]"
15,Cc1ccc(CSCC(=O)NCc2cccs2)cc1,"inconclusive: 10.3 µM [activator, partial curve, poor fit]"
16,Cc1cc(NC(=O)CN2C(=O)/C(=C/c3ccccc3F)SC2=S)no1,inactive
17,CN1CCN(C(=O)c2ccc3c(c2)N(Cc2ccc(Cl)cc2)C(=O)c2ccccc2S3=O)CC1 (stereo not drawn),inactive
18,Cc1ccc2cc(C)c3nnc(SCC(=O)N4CCCc5ccccc54)n3c2c1C,"inconclusive: 23.1 µM [inhibitor, single point]"
19,COc1ccccc1C(=O)NNC(=O)c1ccc(F)cc1,"inconclusive: 20.6 µM [activator, partial curve]"
20,O=C(Nc1ccc2c(c1)OCO2)c1ccc(CN2CCOCC2)cc1,"inconclusive: 9.2 µM [activator, partial curve]"
21,COc1ccc(-c2cc3ccc(O)cc3oc2=O)cc1OC,"inconclusive: 9.2 µM [activator, partial curve]"
22,O=C(CCc1ccccc1)NNC(=O)c1cc(Cl)ccc1O,"inconclusive: 23.1 µM [inhibitor, single point]"

row,SMILES,Potency
1,Cc1ccc(O)c(C(=O)c2cnc3c(c2)CN(C)C(=O)N3)c1,"inconclusive: 10.3 µM [inhibitor, partial curve]"
2,O=C(NC(Cc1ccccc1)C(=O)N1CCN(S(=O)(=O)c2ccccc2F)CC1)c1ccccc1 (stereo not drawn),"inconclusive: 16.4 µM [inhibitor, partial curve, poor fit]"
3,FC(F)(F)c1cc(-c2ccco2)nc(N2CCN(Cc3ccccc3)CC2)n1,inactive
4,COc1cc(C(C(=O)NC2CCCCC2)N(C(=O)Cc2c[nH]c3ccccc23)c2ccc(C)cc2)cc(OC)c1OC (stereo not drawn),"inconclusive: 18.4 µM [inhibitor, partial curve, poor fit]"
5,O=C(COC(=O)c1cc([N+](=O)[O-])ccc1N1CCCC1)Nc1ccccc1OC(F)F,"inconclusive: 29.1 µM [inhibitor, single point]"
6,COCCCNCCCCOc1ccc(OCc2ccccc2)cc1,"inconclusive: 23.1 µM [activator, partial curve]"
7,C=CCC[C@H](Cc1ccc(F)cc1)C(=O)OC[C@@H](NC(=O)[C@@H](CC=C)CC(=O)N(CCO)Cc1ccccc1)C(C)(C)C,"inconclusive: 29.1 µM [inhibitor, single point]"
9,COc1ccc(-n2c(SCC(=O)Nc3nccs3)nnc2-c2ccoc2C)cc1,active: 20.6 µM
10,Nc1ncnc2c1ncn2C1OC(COP(=O)(O)O)C(O)C1O (stereo not drawn),"inconclusive: 18.3 µM [activator, single point]"
11,COC(=O)N1C(=O)[C@](c2ccc(Cl)cc2)(C(C)C)N1C(=O)OC,"inconclusive: 32.6 µM [inhibitor, partial curve, poor fit]"
12,Cc1ccc(Cn2cnc3sc4c(c3c2=O)CCC4)c(C)c1,"inconclusive: 32.6 µM [inhibitor, single point]"
13,Cc1c(NC(=O)c2cc(-n3cnnc3)ccc2Cl)cccc1-c1nc2ccccc2s1,"inconclusive: 6.51 µM [activator, single point]"
14,CCOc1ccc(NC(=O)c2cccnc2C(=O)O)cc1,"inconclusive: 23.1 µM [activator, single point]"
15,COCCn1c(=NC(=O)CSCC(=O)NC2CCCCC2)sc2cc(OC)ccc21,"inconclusive: 32.6 µM [inhibitor, single point]"
16,Cc1nn(-c2nc3ccccc3[nH]2)c(N)c1-c1ccc(Cl)cc1,"inconclusive: 10.3 µM [activator, partial curve]"
17,O=C(NC12CC3CC(CC(C3)C1)C2)c1cncc(Br)c1,"inconclusive: 18.3 µM [inhibitor, partial curve]"
18,O=[N+]([O-])c1ccc(SCc2c(F)cccc2Cl)nc1,"inconclusive: 29.1 µM [activator, single point]"
19,COc1ccc(NC(=O)C2CCN(C(=O)c3ccc(OC)cc3)CC2)cc1,"inconclusive: 23.1 µM [activator, partial curve, poor fit]"
20,CC(=NCc1cccc(Cl)c1)c1nc(-c2ccco2)oc1O,"inconclusive: 29.1 µM [activator, single point]"
21,NC(=O)c1ccccc1NS(=O)(=O)c1ccccc1,inactive

# Laid out differently: three of the compounds above.
row | SMILES | Potency
14 | CCOc1ccc(NC(=O)c2cccnc2C(=O)O)cc1 | inconclusive: 23.1 µM [activator, single point]
15 | COCCn1c(=NC(=O)CSCC(=O)NC2CCCCC2)sc2cc(OC)ccc21 | inconclusive: 32.6 µM [inhibitor, single point]
16 | Cc1nn(-c2nc3ccccc3[nH]2)c(N)c1-c1ccc(Cl)cc1 | inconclusive: 10.3 µM [activator, partial curve]
